Experimental data as given in article PMC10869362.
These are yes or no findings as the source states them, for the method shown. Binding seen in cells or lysates may run through a third protein. Binding calls can cover weak binding; strength is not graded here. Sequences can lack the tags named with a protein.

Legend:
[1] = molecular target: detour:GFP (GFP-tagged detour, CG14435) (Drosophila) (UniProt Q9W3V3); experiment: co-IP; S2 (SL2) cells co-transfected with detour:GFP (or GFP alone) and Flag:dor, Myc:Vps16A, HA:lt, one by one or all together; IP with anti-GFP, blots with anti-Flag, anti-Myc, anti-HA
[2] = molecular target: detourΔ:V5 (V5-tagged detour RING deletion) (Drosophila); experiment: co-IP; SL2 cells co-transfected with detour:V5 or detourΔ:V5 and Flag:dor or Flag:Vps16A; IP with anti-V5, blots with anti-Flag and anti-V5
[3] = molecular target: detour:V5 (V5-tagged detour) (Drosophila); experiment: as above

Row | Binder | binding [1] | binding [2] | binding [3]
1 | Flag:dor (Flag-tagged deep orange) (protein, UniProt Q24314 1-1002) MDTSMPNQPKFLPRIEHNSSGATANSYVATASGNPFETDEEDEIFSRHKMVLRVPSNCTGDLMHLAVSRNWLVCLLGTPERTTLLRFFLPRAIPPGEAVLEKYLSGSGYKITRMFLDPTGHHIIIALVPKSATAGVSPDFLYIHCLESPQAQQLKVRRIEKFKDHEITAVAFNPYHGNESSTGPILLGTSRGLIFETELNPAADGHVQRKQLYDLGLGRPKYPITGLKLLRVPNSSRYIIVVTSPECIYTFQETLKAEERSLQAIFAGYVSGVQEPHCEERKTDLTFSQLRFFAPPNSKYPKQWAWLCGEGIRVGELSIEANSAATLIGNTLINLDFEKTMHLSYGERRLNTPKAFVLTEYHAVLLYADHVRAICLLNQEQVYQEAFDEARVGKPLSIERDELTGSIYVYTVKTVFNLRVTREERNVWRIYLDKGQYELATAHAAEDPEHLQLVLCQRADAAFADGSYQVAADYYAETDKSFEEVCLKFMVLPDKRPIINYVKKRLSRVTTKPMETDELDEDKMNIIKALVIWLIDLYLIQINMPDKDEEWRSSWQTEYDEFMMEAHVLSCTRQNRETVRQLIAEHADPRNMAQFAIAIGDYDEVVAQQLKAECYAEALQTLINQRNPELFYKYAPELITRLPKPTVDALMAQGSRLEVEKLVPTLIIMENREQREQTQRYLEFAIYKLNTTNDAIHNFLLHLYAEHEPKLLMKYLEIQGRDESLVHYDIYYAHKVCTDLDVKEARVFLECMLRKWISAVDLALTFDMKLAKETASRPSDSKIRRKLWLRIAYHDIKGTNDVKKALNLLKECDLLRIEDLLPFFADFEKIDNFKEAICDALRDYNQRIQELQREMAETTEQTDRVTAELQQLRQHSLTVESQDTCEICEMMLLVKPFFIFICGHKFHSDCLEKHVVPLLTKEQCRRLGTLKQQLEAEVQTQAQPQSGALSKQQAMELQRKRAALKTEIEDILAADCLFCGLLISTIDQPFVDDWEQVNVEWE | binds | binds | binds
2 | Flag:Vps16A (Flag-tagged Vps16A) (protein, UniProt Q9VHG1 1-833) MPIMYNTGEWFKVRPDYYRKVELATPDWPLDLDLEYMWVEVAPYGGPLAVTRDPTKLVPVKGNARPMIRIFDTTGREMGHILWNHGKLIAMGWSDMEELICIQENATVFVYDMFGREKESYSIGDEASVTKIVEGKVFQSSAGTGVAVMTTSGRVFLKQNSSKTERKLPDIPNSSMNCSCWEIVTEGRNSYCLLGRDREVIKLFPGETVGTITANLFEKPHERIIKISVSYNHQHLALYTNTGLLWLGSVDMRQKYCEFDTGRKDMPLQMEWIMNSDNSEADAVVISYPSYLLIVNRNADRSDFPYDPVMFLVAEMDGVRIITQSSHEIIQRLPKCVENIFAVNSQEPASYLFEAQKKFEEKSYKSDEYLSMCREKIDLAVSECIEAASYEFCPETQKSLLRTAYFGKGFIRNHNPDEYMRIMRILRVLNTLRHERIAMPITFKQFSHLNTEVILSRLVFRKHYAIAIQVAKHLNLPESWILEHWAYHKVMNDPNDTEVARKITEKFKNPSVEGISFCNIASKAHQAGRDDLAIKLLELESRASLHVPLLLKMRKFDRAVGSATQSGDTELITQVLLEMKMHMMLSNLHMTIRDHPLALNIYKKIMRESNRAGLYGIYNTEDDQKAIAEYHFQNAIETEGLESNLSMIGNAYAQGRCTLEAELCADTSRLIKLQKTLSTKYNVSLNGLSIHETIQELLLIGELKEAERIRSEFKVPDRRFWWLRILTLSSQHKWEELEKLAKSKKSPIGYDPFVEVCLKQDNVMEARKYIPRCRDNRRVVWYMRANLFNEAIDSAFEQRDVHSLFELQKNQAIVNNGTLLSKVCDCIAMLEGK | – | binds | binds

More lines, now with the values ahead:

Row | binding [1] | binding [2] | binding [3] | Binder
3 | binds | – | – | Myc:Vps16A (Myc-tagged Vacuolar protein sorting 16A) (protein, UniProt Q9VHG1 1-833) MPIMYNTGEWFKVRPDYYRKVELATPDWPLDLDLEYMWVEVAPYGGPLAVTRDPTKLVPVKGNARPMIRIFDTTGREMGHILWNHGKLIAMGWSDMEELICIQENATVFVYDMFGREKESYSIGDEASVTKIVEGKVFQSSAGTGVAVMTTSGRVFLKQNSSKTERKLPDIPNSSMNCSCWEIVTEGRNSYCLLGRDREVIKLFPGETVGTITANLFEKPHERIIKISVSYNHQHLALYTNTGLLWLGSVDMRQKYCEFDTGRKDMPLQMEWIMNSDNSEADAVVISYPSYLLIVNRNADRSDFPYDPVMFLVAEMDGVRIITQSSHEIIQRLPKCVENIFAVNSQEPASYLFEAQKKFEEKSYKSDEYLSMCREKIDLAVSECIEAASYEFCPETQKSLLRTAYFGKGFIRNHNPDEYMRIMRILRVLNTLRHERIAMPITFKQFSHLNTEVILSRLVFRKHYAIAIQVAKHLNLPESWILEHWAYHKVMNDPNDTEVARKITEKFKNPSVEGISFCNIASKAHQAGRDDLAIKLLELESRASLHVPLLLKMRKFDRAVGSATQSGDTELITQVLLEMKMHMMLSNLHMTIRDHPLALNIYKKIMRESNRAGLYGIYNTEDDQKAIAEYHFQNAIETEGLESNLSMIGNAYAQGRCTLEAELCADTSRLIKLQKTLSTKYNVSLNGLSIHETIQELLLIGELKEAERIRSEFKVPDRRFWWLRILTLSSQHKWEELEKLAKSKKSPIGYDPFVEVCLKQDNVMEARKYIPRCRDNRRVVWYMRANLFNEAIDSAFEQRDVHSLFELQKNQAIVNNGTLLSKVCDCIAMLEGK
4 | binds | – | – | HA:lt (HA-tagged light) (protein, UniProt Q7PL76 1-841) MAKALPLISCDSWADSINEEDVEPKFKYHRLANDLKYMLNADVITCSAVHLKFLIFGTFRGRVCIFDHQGNSVYSNLSASERHTHQVAVNNIDVDHKGEYVATCSDDGKVNITGLFSSDNNHSLSFGKFIKVVSLEPDSKAHIKRFVVGDDKLILYERNLLKKLKPVELCSVEGSVLSICWHGNFIAWASHIGVRVYDLNERCSLGLIKWEVPPQERLENFRCHLRWSNKHTLLIGWVDTIRVCVIRKRNSIEASTGNLPVYIVDPISTFQTTFYVCGLAPLSAKQLVVLGFRKEKSSCFKALRPVLCVIEYKMNNSEEICTDSLTLRGFEEYTVNDYSLGGIIEENRFYIVAPKDIVVASLIETDDRIEWLIKHSKFEEAMELISANGGNVPVLSVAKLYINHLLALKKYDDAAKLCLRMLGNDKVLWEEEVFKFVKCQQLRSVSAYLPTSDECKLDPHVYEMVLYEFLKFDVCGFLNLIKEWPSHLYDGLAVINAIHDNFRKHYANQLLESLALLYSYQGDFESALRMYLKLQNKDVFQLIRRYELYDVISKLIIPLIQLDRDCAFEILLDKKKIKTEIVVHQLEHNQEYLYWYLDSLLKKDPSNVFQKKLISLYAIFDRNKLLPFLKRSKDYDIQEALVICKQENFYPEIVYLLGCMGGVEASEALNIIIHRIRDIEMAIEFCKEHDDSDLWNALINEFSKHPEIVTKVLDGIVDYFSPAVVVGKIKMGQNIPNLRQSLIKMLRHYNLQGEILSSAQQIQLNDYFEIHSEIVTTQRRGQQVSYEQLCSLCHRPVLMAGTHLYCIIRLECGHVYHKPCIQGELLKNCNECNLWKLTVGK
